This is an account of results in PubChem BioAssay AID330 (DTP/NCI, 2004).

The list shows only some results of the screen, not a fair sample: it gathers tests that were run many times, whatever their T/C, doses with no T/C, and many T/C values between a quarter and a half above the control. Further doses and runs are listed elsewhere. T/C gives the treated animals as a percentage of the vehicle group. Some doses have a count of surviving animals in place of a T/C: the source holds a T/C of zero for them, seemingly a mark for toxic or unscored doses. Some survivor counts are full or nearly so, which does not show that the dose was tolerated: the source hardly ever lists a survival T/C far under the control, and the zero likely stands for such cases as well. Counts of survivors are from the toxicity check (mostly the fifth day) where no day follows; animals may have died later. Schedules are NCI's codes, read here as Q, the interval in days (D) or hours (H), X, the number of doses. Where survival is the endpoint, this PubChem deposit counts one and a half times the control or more as active, and values a quarter to a half above the control carry no call in these data; other NCI protocols may use other cut-offs. Some T/C values are followed by the survivors on the day toxicity was checked, most often the fifth; without a count, all were alive then. Some doses were run more than once; the values are given in rising order. Additions like (4×) count equal records among those shown.

The subject of the assay is P388 leukemia ip, CD2F1 mice, survival T/C. The experiment in a line: NCI In Vivo Anticancer Drug Screen. Data for tumor model P388 Leukemia (intraperitoneal) in CD2F1 (CDF1) mice. To be noted: T/C endpoint: median survival time, higher T/C = longer survival.
[1] abbreviates: dose: 200.0 mg/kg/injection, schedule: Q01DX005 (ip), vehicle: saline.
The mark [2] stands for this setting: dose: 200.0 mg/kg/injection, schedule: Q01DX009 (ip), vehicle: saline with Tween-80.

Turning to `CS(=O)(=O)CS(=O)(=O)OCCCl`, the T/C is 132 % of control (dose: 12.5 mg/kg/injection, schedule: Q01DX005 (ip), vehicle: dextrose); 127 % of control (dose: 12.5 mg/kg/injection, schedule: Q01DX005 (ip), vehicle: distilled water + Tween-80); 144 % of control (dose: 15.0 mg/kg/injection, schedule: Q01DX005 (ip), vehicle: saline); 160, 161, 168 (2×), 180 % of control (dose: 22.0 mg/kg/injection, schedule: Q01DX005 (ip), vehicle: saline with Tween-80, evaluated on day 30); 155 % of control (dose: 22.0 mg/kg/injection, schedule: Q01DX005 (ip), vehicle: saline with Tween-80, evaluated on day 45); 151 and 170 % of control (dose: 22.0 mg/kg/injection, schedule: Q01DX005 (ip), vehicle: saline with Tween-80, evaluated on day 60). The T/C is 145 % of control (dose: 25.0 mg/kg/injection, schedule: Q01DX005 (ip), vehicle: distilled water + Tween-80); 141 % of control (dose: 25.0 mg/kg/injection, schedule: Q01DX005 (iv), vehicle: dextrose); 179, 202, 208, 209, 214 % of control (dose: 33.0 mg/kg/injection, schedule: Q01DX005 (ip), vehicle: saline with Tween-80, evaluated on day 30); 186 % of control (dose: 33.0 mg/kg/injection, schedule: Q01DX005 (ip), vehicle: saline with Tween-80, evaluated on day 45); 178 [9 of 10 alive], 217, 231, 292 % of control (dose: 33.0 mg/kg/injection, schedule: Q01DX005 (ip), vehicle: saline with Tween-80, evaluated on day 60); 230, 233, 250, 272, 280, 285 % of control (dose: 50.0 mg/kg/injection, schedule: Q01DX005 (ip), vehicle: saline with Tween-80, evaluated on day 30). Further, the T/C (dose: 50.0 mg/kg/injection, schedule: Q01DX005 (ip), vehicle: saline with Tween-80, evaluated on day 45) was 412 % of control; the T/C (dose: 50.0 mg/kg/injection, schedule: Q01DX005 (ip), vehicle: saline with Tween-80, evaluated on day 60) was 292, 555, 600, 606 % of control [9 of 10 alive]; the T/C (dose: 75.0 mg/kg/injection, schedule: Q01DX005 (ip), vehicle: saline with Tween-80, evaluated on day 45) was 412 % of control; the T/C (dose: 75.0 mg/kg/injection, schedule: Q01DX005 (ip), vehicle: saline with Tween-80, evaluated on day 60) is listed as 555, 566, 600, 606 % of control; the T/C (dose: 100.0 mg/kg/injection, schedule: Q01DX005 (ip), vehicle: saline with Tween-80, evaluated on day 30) was 90 % of control [4 of 6 alive]; the T/C (dose: 100.0 mg/kg/injection, schedule: Q01DX005 (ip), vehicle: saline with Tween-80, evaluated on day 45) is 412 % of control. Besides, the T/C (dose: 100.0 mg/kg/injection, schedule: Q01DX005 (ip), vehicle: saline with Tween-80, evaluated on day 60) was 600 and 606 % of control. Further, the survivor count is, setting by setting: (dose: 75.0 mg/kg/injection, schedule: Q01DX005 (ip), vehicle: water) 2 of 6; (dose: 100.0 mg/kg/injection, schedule: Q01DX005 (ip), vehicle: dextrose) 4 of 10; (dose: 100.0 mg/kg/injection, schedule: Q01DX005 (ip), vehicle: saline with Tween-80) 6 of 10; (dose: 125.0 mg/kg/injection, schedule: Q01DX005 (ip), vehicle: dextrose) 0 of 10; (dose: 125.0 mg/kg/injection, schedule: Q01DX005 (ip), vehicle: other) 0 of 6; (dose: 125.0 mg/kg/injection, schedule: Q01DX005 (ip), vehicle: saline with Tween-80) 3 of 10. The survivor count reads like this: (dose: 125.0 mg/kg/injection, schedule: Q01DX005 (ip), vehicle: water) 3 of 10; (dose: 150.0 mg/kg/injection, schedule: Q01DX005 (ip), vehicle: saline) 0 of 5; (dose: 200.0 mg/kg/injection, schedule: Q01DX005 (ip), vehicle: saline with Tween-80) 0 of 6; under setting [1], 1 of 6.

As for `C=CCOCN1c2cc(OC)c([C@@]3(C(=O)OC)C[C@@H]4CN(CCc5c3[nH]c3ccccc53)C[C@](O)(CC)C4)cc2[C@@]23CCN4CC=C[C@@](CC)([C@@H](OC(C)=O)[C@](O)(C(=O)OC)[C@H]12)[C@H]43`, the T/C is, setting by setting: (dose: 8.0 mg/kg/injection, schedule: Q01DX001 (ip), vehicle: other) 133 % of control; (dose: 8.0 mg/kg/injection, schedule: Q01DX001 (ip), vehicle: water) 127 % of control; (dose: 16.0 mg/kg/injection, schedule: Q01DX001 (ip), vehicle: other) 148 % of control; (dose: 16.0 mg/kg/injection, schedule: Q01DX001 (ip), vehicle: water) 134 % of control; (dose: 32.0 mg/kg/injection, schedule: Q01DX001 (ip), vehicle: water) 139 % of control. Besides, the survivor count (dose: 64.0 mg/kg/injection, schedule: Q01DX001 (ip), vehicle: other) was 2 of 6.

As to `Nc1nccc(CCc2ccccc2)n1`, under “dose: 240.0 mg/kg/injection, schedule: Q01DX005 (ip), vehicle: saline with Tween-80”, the survivor count is 6 of 6.

Consider `OCC1OC(N(O)c2ccc(Oc3c(Cl)cc(Cl)cc3Cl)cc2)C(O)C(O)C1O` (centres undefined), for which the survivor count (dose: 240.0 mg/kg/injection, schedule: Q01DX005 (ip), vehicle: Klucel (hydroxypropylcellulose) (HPC)) is reported as 1 of 6.

`CC(/C=C/C1OC(=O)C=CC1C)=C\C(C)C/C=C/C(C)=C/C(C)C(=O)C(C)C(O)C(C)C/C(C)=C/C(=O)O` (centres undefined): the T/C is, setting by setting: (dose: 25.0 micrograms/kg/injection, schedule: Q01DX005 (ip), vehicle: alcohol) 144 % of control; (dose: 25.0 micrograms/kg/injection, schedule: Q01DX005 (ip), vehicle: saline + alcohol) 127 % of control; (dose: 50.0 micrograms/kg/injection, schedule: Q01DX005 (ip), vehicle: alcohol) 143 % of control; (dose: 50.0 micrograms/kg/injection, schedule: Q01DX005 (ip), vehicle: saline + alcohol) 133 % of control; (dose: 50.0 micrograms/kg/injection, schedule: Q01DX005 (ip), vehicle: saline) 135 % of control; (dose: 100.0 micrograms/kg/injection, schedule: Q01DX005 (ip), vehicle: saline + alcohol) 133 % of control. The T/C (dose: 100.0 micrograms/kg/injection, schedule: Q01DX005 (ip), vehicle: saline) was 144 % of control [5 of 6 alive] and the T/C (dose: 200.0 micrograms/kg/injection, schedule: Q01DX005 (ip), vehicle: saline + alcohol) is 147 % of control. Also, the survivor count by setting is: (dose: 200.0 micrograms/kg/injection, schedule: Q01DX005 (ip), vehicle: saline) 6 of 6; (dose: 400.0 micrograms/kg/injection, schedule: Q01DX005 (ip), vehicle: saline) 0 of 6.

Consider `C=C1C(C(=O)OC)=NNc2c(C(N)=O)ncn21`, for which the survivor count (dose: 400.0 mg/kg/injection, schedule: Q01DX001 (ip), vehicle: Klucel (hydroxypropylcellulose) (HPC)) is 1 of 6.

With `Oc1ccccc1C1=NC(c2ccccc2)NC(c2ccccc2)C1` (centres undefined), the survivor count under setting [2] is listed as 6 of 6.

With `CC(C)Sc1nc(NC(=O)N(CCCl)N=O)cc(=O)[nH]1`, for the setting “dose: 25.0 mg/kg/injection, schedule: Q01DX005 (ip), vehicle: Klucel (hydroxypropylcellulose) (HPC)”, the T/C is 148 % of control. The survivor count reads like this: (dose: 100.0 mg/kg/injection, schedule: Q01DX005 (ip), vehicle: Klucel (hydroxypropylcellulose) (HPC)) 6 of 6; (dose: 200.0 mg/kg/injection, schedule: Q01DX005 (ip), vehicle: Klucel (hydroxypropylcellulose) (HPC)) 5 of 6.

Take `C=C1C(=O)O[C@@H]2C[C@@]3(C)CCC[C@H](C)C3=C[C@H]12` (tested in a mixture with another compound): the survivor count (dose: 240.0 mg/kg/injection, schedule: Q01DX005 (ip), vehicle: saline + alcohol) is reported as 0 of 6.

Take `O=C1C=CC(=Nc2cc(Cl)c(O)c(Cl)c2)C=C1Cl`: the survivor count is listed as 2 of 5 (dose: 50.0 mg/kg/injection, schedule: Q01DX005 (ip), vehicle: saline); 1 of 5 (dose: 100.0 mg/kg/injection, schedule: Q01DX005 (ip), vehicle: saline); 0 of 5 under setting [1].

Turning to `Nc1nc(=S)c2ncn(C3OC(COC(=O)c4ccccc4)C(OC(=O)c4ccccc4)C3OC(=O)c3ccccc3)c2[nH]1` (centres undefined), the T/C is 137 % of control (dose: 100.0 mg/kg/injection, schedule: Q04DX003 (ip), vehicle: saline with Tween-80) and 129 % of control (dose: 150.0 mg/kg/injection, schedule: Q04DX003 (ip), vehicle: saline with Tween-80). The survivor count under setting [2] was 5 of 6.
